Laboratory results taken from patent US20110166428A1, “NOVEL METHOD FOR MEASURING INSULIN RESISTANCE” (UNIVERSITE JOSEPH FOURIER, priority 2008, published 2011).

Tested on: cardiac cells
Assay: Post-myocardial infarction cardiac insulin resistance index by 6DIG nuclear imaging
Format: in vivo, rat
Experimental: FIG. 21 represents the indices of cardiac insulin resistance (K(2,1)insulin/K(2,1)Basal) (see paragraph II-2) of three groups of rats. The value of the index of cardiac insulin resistance is indicated along the y-axis. The three groups of rats are indicated by the three columns on the x-axis. The columns are considered from left to right. The measurements are carried out 7 days after the surgical operation.
The myocardial infarction experimental model utilised here is that induced by temporary in situ ligature of the left coronary artery. This protocol induces a transmural infarction, the scale of which is sufficient to lead to the development of severe cardiac insufficiency. The animals are anaesthetised by intraperitoneal injection of a 1:1 mixture of ketamine/xylazine, (50 mg/kg and 10 mg/kg respectively), and a volatile maintenance anaesthesia (isoflurane) is applied until the end of the surgical protocol. The rats are intubated and artificially ventilated (0.1 mL/100 g body weight, frequency: 65/min, gas mixture: 80% air+19.5% oxygen+0.5% isoflurane). Throughout the process, the rat is located on a heating blanket (Homeothermic Blanket System, Harvard Apparatus) making it possible to maintain its body temperature at 37° C. […]
Seven days after the thoracic surgery, each rat is anaesthetised by intra-peritoneal injection of a solution of sodium pentothal (54.7 mg/ml). […] The arterial glycaemia of the rat is measured by means of reactive strips (Accu-Chek® Performa, Laboratoires Roche). […]
After the first 20 minutes of acquisition, which constitute the test in the basal state (FIG. 1, measurement A), a bolus of insulin (Actrapid, Novo Nordisk, France, 7.5 IU/mL, 100 μL per 300 g of body weight) is injected (FIG. 1, time 2). After 5 minutes (FIG. 1, time 3), the glycaemia is measured and a bolus of about 170 μCi of 6DIG is injected. […] The blood samples are passed into a counter (Cobra II Auto-Gamma, Packard, Canberra Company) which counts the radioactivity in counts per minute, to determine the blood kinetics of the tracer. […]

Compound: O=C[C@H](O)[C@@H](O)[C@H](O)[C@H](O)CI [6DIG, 6-Deoxy-6-Iodo-D-Glucose]
- index of cardiac insulin resistance (K(2,1)insulin/K(2,1)Basal) (RI rats (ischaemia reperfusion), 7 days after surgery, n=11, FIG. 21): 1.09+/−0.04
- index of cardiac insulin resistance (K(2,1)insulin/K(2,1)Basal) (Sham rats, 7 days after surgery without occlusion, n=13, FIG. 21): 1.62+/−0.16
- index of cardiac insulin resistance (K(2,1)insulin/K(2,1)Basal) (control group of rats, no surgery, n=11, FIG. 21): 2.46+/−0.25
